Assay results from publication PMC11557892, “Structural basis of MICAL autoinhibition” (Nature Communications, 2024).
No constants are given. Whether binding was seen depends on the method and setting.

T1: human MICAL1 (residues M1-G1067) (human), Q8TDZ2
T1 chain: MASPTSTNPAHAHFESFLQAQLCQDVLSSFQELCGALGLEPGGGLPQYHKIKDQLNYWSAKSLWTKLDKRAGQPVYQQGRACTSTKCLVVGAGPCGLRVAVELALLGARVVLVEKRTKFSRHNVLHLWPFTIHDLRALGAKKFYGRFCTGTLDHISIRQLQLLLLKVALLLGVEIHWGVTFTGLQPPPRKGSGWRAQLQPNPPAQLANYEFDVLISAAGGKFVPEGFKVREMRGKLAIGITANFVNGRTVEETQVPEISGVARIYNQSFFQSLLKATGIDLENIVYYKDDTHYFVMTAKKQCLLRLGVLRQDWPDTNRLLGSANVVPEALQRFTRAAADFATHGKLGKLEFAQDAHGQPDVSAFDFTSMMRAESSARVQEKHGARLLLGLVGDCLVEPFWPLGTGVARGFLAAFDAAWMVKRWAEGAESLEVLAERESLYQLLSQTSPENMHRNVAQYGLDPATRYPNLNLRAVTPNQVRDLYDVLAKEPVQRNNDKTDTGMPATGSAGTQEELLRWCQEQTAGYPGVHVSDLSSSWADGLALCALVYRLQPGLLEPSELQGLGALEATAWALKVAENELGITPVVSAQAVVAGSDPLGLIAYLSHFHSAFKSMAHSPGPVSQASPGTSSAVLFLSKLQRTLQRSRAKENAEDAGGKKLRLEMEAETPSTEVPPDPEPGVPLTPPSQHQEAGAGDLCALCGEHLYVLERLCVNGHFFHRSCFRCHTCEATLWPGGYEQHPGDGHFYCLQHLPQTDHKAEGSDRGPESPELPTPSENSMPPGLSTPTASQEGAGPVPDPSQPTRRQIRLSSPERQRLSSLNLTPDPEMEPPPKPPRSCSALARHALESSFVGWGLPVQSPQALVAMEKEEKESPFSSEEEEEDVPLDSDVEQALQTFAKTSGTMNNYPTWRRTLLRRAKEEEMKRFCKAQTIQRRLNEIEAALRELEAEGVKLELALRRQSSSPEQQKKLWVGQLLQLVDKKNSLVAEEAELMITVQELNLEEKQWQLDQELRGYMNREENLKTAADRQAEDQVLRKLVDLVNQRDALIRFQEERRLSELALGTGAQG

T2: biotinylated human MICAL1^CC (residues K918-G1067) (human) (UniProt Q8TDZ2)
T2 sequence (chain, biotin on the Avi tag (biotinylated in vivo)): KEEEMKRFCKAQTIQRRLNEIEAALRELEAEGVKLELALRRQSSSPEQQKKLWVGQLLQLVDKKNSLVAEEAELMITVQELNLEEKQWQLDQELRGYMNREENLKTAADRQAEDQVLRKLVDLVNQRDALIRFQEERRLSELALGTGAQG


Columns and labels:
[1] = target: T1, human MICAL1 (residues M1-G1067) …; test: AUC; sedimentation velocity, 40,000 rpm; 15 mM Tris-HCl pH 8.0, 150 mM NaCl, 2 mM DTT; 1 and 5 mg/ml (8 and 40 µM); both purified; conditions: remark: other sources report otherwise
[2] = target: T1, human MICAL1 (residues M1-G1067) …; test: SEC-MALS; Agilent Biosec-3 column; 15 mM Tris-HCl pH 8.0, 150 mM NaCl, 2 mM DTT, 25 °C; initial concentrations 2.0, 1.0 and 0.5 mg/ml; both purified; conditions: remark: other sources report otherwise
[3] = target: T2, biotinylated human MICAL1^CC (residues K918-G1067) (human); test: BLI; biotinylated CC domain immobilised (8.8 µg/ml) on Octet SAX biosensors, MO or MICAL1^ΔCC as analyte; 20 mM HEPES pH 7.4, 150 mM NaCl, 2 mM DTT, 2 mM MgCl2, 0.05% Tween 20, 20 °C; duplicates; both purified

| binding [1] | binding [2] | binding [3] | Binder |
| --- | --- | --- | --- |
| no binding (tested: 40 µM) | no binding (tested: 2.0 mg/ml) | – | human MICAL1 (residues M1-G1067), Q8TDZ2 1-1067 (protein) MASPTSTNPAHAHFESFLQAQLCQDVLSSFQELCGALGLEPGGGLPQYHKIKDQLNYWSAKSLWTKLDKRAGQPVYQQGRACTSTKCLVVGAGPCGLRVAVELALLGARVVLVEKRTKFSRHNVLHLWPFTIHDLRALGAKKFYGRFCTGTLDHISIRQLQLLLLKVALLLGVEIHWGVTFTGLQPPPRKGSGWRAQLQPNPPAQLANYEFDVLISAAGGKFVPEGFKVREMRGKLAIGITANFVNGRTVEETQVPEISGVARIYNQSFFQSLLKATGIDLENIVYYKDDTHYFVMTAKKQCLLRLGVLRQDWPDTNRLLGSANVVPEALQRFTRAAADFATHGKLGKLEFAQDAHGQPDVSAFDFTSMMRAESSARVQEKHGARLLLGLVGDCLVEPFWPLGTGVARGFLAAFDAAWMVKRWAEGAESLEVLAERESLYQLLSQTSPENMHRNVAQYGLDPATRYPNLNLRAVTPNQVRDLYDVLAKEPVQRNNDKTDTGMPATGSAGTQEELLRWCQEQTAGYPGVHVSDLSSSWADGLALCALVYRLQPGLLEPSELQGLGALEATAWALKVAENELGITPVVSAQAVVAGSDPLGLIAYLSHFHSAFKSMAHSPGPVSQASPGTSSAVLFLSKLQRTLQRSRAKENAEDAGGKKLRLEMEAETPSTEVPPDPEPGVPLTPPSQHQEAGAGDLCALCGEHLYVLERLCVNGHFFHRSCFRCHTCEATLWPGGYEQHPGDGHFYCLQHLPQTDHKAEGSDRGPESPELPTPSENSMPPGLSTPTASQEGAGPVPDPSQPTRRQIRLSSPERQRLSSLNLTPDPEMEPPPKPPRSCSALARHALESSFVGWGLPVQSPQALVAMEKEEKESPFSSEEEEEDVPLDSDVEQALQTFAKTSGTMNNYPTWRRTLLRRAKEEEMKRFCKAQTIQRRLNEIEAALRELEAEGVKLELALRRQSSSPEQQKKLWVGQLLQLVDKKNSLVAEEAELMITVQELNLEEKQWQLDQELRGYMNREENLKTAADRQAEDQVLRKLVDLVNQRDALIRFQEERRLSELALGTGAQG |
| – | – | no binding (tested: 27 µM) | human MICAL1^MO (residues T7-E489) (domain or fragment, UniProt Q8TDZ2 7-489) TNPAHAHFESFLQAQLCQDVLSSFQELCGALGLEPGGGLPQYHKIKDQLNYWSAKSLWTKLDKRAGQPVYQQGRACTSTKCLVVGAGPCGLRVAVELALLGARVVLVEKRTKFSRHNVLHLWPFTIHDLRALGAKKFYGRFCTGTLDHISIRQLQLLLLKVALLLGVEIHWGVTFTGLQPPPRKGSGWRAQLQPNPPAQLANYEFDVLISAAGGKFVPEGFKVREMRGKLAIGITANFVNGRTVEETQVPEISGVARIYNQSFFQSLLKATGIDLENIVYYKDDTHYFVMTAKKQCLLRLGVLRQDWPDTNRLLGSANVVPEALQRFTRAAADFATHGKLGKLEFAQDAHGQPDVSAFDFTSMMRAESSARVQEKHGARLLLGLVGDCLVEPFWPLGTGVARGFLAAFDAAWMVKRWAEGAESLEVLAERESLYQLLSQTSPENMHRNVAQYGLDPATRYPNLNLRAVTPNQVRDLYDVLAKE |
